According to US12529705 (dated 2026):
Results are given in words; binding and its absence hold for the method and conditions named. Some entries that bind do so weakly or less than the wild type.

Chains of the proteins cited; added tags and fusions are not shown. Lines headed by an entry give the natural chain unless they say otherwise; changes in a name come on top.
UniProt Q14114: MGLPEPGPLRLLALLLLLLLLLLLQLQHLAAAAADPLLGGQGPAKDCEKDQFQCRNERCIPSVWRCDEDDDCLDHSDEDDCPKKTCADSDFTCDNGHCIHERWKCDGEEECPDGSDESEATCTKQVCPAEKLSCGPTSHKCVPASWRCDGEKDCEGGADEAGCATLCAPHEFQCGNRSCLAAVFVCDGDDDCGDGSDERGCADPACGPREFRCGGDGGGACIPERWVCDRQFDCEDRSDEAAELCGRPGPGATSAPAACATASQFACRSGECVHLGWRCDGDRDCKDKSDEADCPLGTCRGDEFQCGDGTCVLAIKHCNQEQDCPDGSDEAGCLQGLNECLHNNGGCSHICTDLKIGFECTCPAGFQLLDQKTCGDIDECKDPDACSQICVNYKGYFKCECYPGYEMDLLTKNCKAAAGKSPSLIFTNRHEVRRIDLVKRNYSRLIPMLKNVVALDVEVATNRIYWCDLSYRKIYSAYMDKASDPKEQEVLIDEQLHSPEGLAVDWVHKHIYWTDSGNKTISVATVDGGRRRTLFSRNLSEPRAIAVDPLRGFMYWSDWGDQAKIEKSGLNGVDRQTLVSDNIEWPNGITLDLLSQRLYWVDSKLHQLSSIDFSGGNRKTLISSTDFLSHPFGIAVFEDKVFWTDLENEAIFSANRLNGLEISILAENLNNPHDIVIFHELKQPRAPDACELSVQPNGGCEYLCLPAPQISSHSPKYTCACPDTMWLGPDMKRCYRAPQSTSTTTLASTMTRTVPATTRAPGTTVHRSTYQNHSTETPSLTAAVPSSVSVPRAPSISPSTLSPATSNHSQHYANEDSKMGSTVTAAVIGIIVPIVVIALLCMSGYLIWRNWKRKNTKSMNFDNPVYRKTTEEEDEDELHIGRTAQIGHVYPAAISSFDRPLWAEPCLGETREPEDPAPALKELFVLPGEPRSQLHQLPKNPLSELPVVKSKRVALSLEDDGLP

What was measured:
[1] = biological target: full-length protein LRP8 expressed in N2A cells transfected with a cDNA coding for LRP8 (Origene, Cat. No. RC220963) (human) (UniProt Q14114); assay: Western blot, lysate of LRP8-transfected N2A cells, antibody at 1 µg/ml
[2] = biological target: full-length LRP8 protein (105 kDa) in human brain tissue and cerebrospinal fluid samples (human) (UniProt Q14114); assay: sandwich ELISA, GS1 or GS2 as capture antibody, 25F7F1 as detection antibody, brain fraction above 30 kDa

binding [1]	binding [2]	Binder
binds		monoclonal antibody of hybridoma 17E11C2 (antibody, V domains shown) VH: EVQLQQSGPVLVKPGASVKMSCKASGYKFTDYFMNWVKKSHGKSLEWIGVINPYNGGTRYNQKFKGKATLTVDKSSSTAYMELNSLTFEDSAVYYCARETVDLAWFVHWGQGTLVTVSA VL: DVLMTQTPPSLPVTLGDQASISCRSSQSIVYSNGNTYLEWYLQKPGQSPKLLIYKVSNRFSGVPDRFSGSGSGTDFTLKISRVEAEDLGIYYCFQGSHVPLTFGAGTKLELK
	binds	monoclonal antibody of hybridoma 25F7F1 (antibody, V domains shown, Mouse (BALB/c) hybridoma monoclonal; also called antibody produced by 25F7F1 mouse hybridomas) VH: EVQLQQSGPVLVKPGASVKMSCKASGYKFTDHFMNWVKKNHGKSLEWIGVINPYNGGTRLNPKFKGKATLTVDKSSSTVYMELNSLTFEDSAVYYCARETIDLAWFAYWGQGTLVTVSA VL: DVLMTQTPPSLPVTLGDQASISCRSSQSIVYSNGKTYLEWYLQKPGQSPKLLMYKVSNRFSGVPDRFSGSGSGTDFTLKISSVEAEDLGIYYCFQGSHVPLTFGAGTKLELK
